PubChem BioAssay AID1224826 | NIAID, 2016
Aim: 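Regulators of Tlr4 signalling leading to Tnf-alpha expression in macrophages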 (primary screen). System: RAW264.7 G9 macrophages from mouse bearing reporters for p65 (GFP) and the Tnf promoter (mCherry). Reagent: siRNA pool against mouse genes, 100 nM. Duration: 16 h of LPS stimulation, after 2 days of siRNA transfection. Challenge: bacterial lipopolysaccharide (Salmonella minnesota R595), 10 ng/ml. Measurement: 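Nuclear mCherry signal of the Tnf promoter reporter measured by imaging after background removal, scaled to each plate median and turned into robust z-scores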. Direction: Tnf reporter robust z-score: higher = stronger Tnf promoter reporter signal after LPS. Rule for the call: 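Called active when robust z-score is at most -1.3, matching the median of the Tlr4 knock-down control, or over 3; control wells and wells with under 50 cells never active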. Meaning of the calls: active = Tnf reporter clearly lowered or raised; inactive = no clear change in Tnf reporter.
This is a random part of about 17,000 deposited reagents. About 1,110 of them (6.6%) count as active. 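Active means lowered or raised reporter signal; replicate intensities are raw and not normalised per plate.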 Entries without a mark were called inactive. Further read-outs or replicates are left out here.

The opening 2 records as a preview:
{"target gene":"Tmc1 (transmembrane channel-like gene family 1)","Tnf reporter robust z-score":0.43,"fewer than 50 cells in well":"enough cells in well"}
{"target gene":"Or10d1 (olfactory receptor family 10 subfamily D member 1)","Tnf reporter robust z-score":0.78,"fewer than 50 cells in well":"enough cells in well"}

Main list, from the first entry:
{"target gene":"Tmc1 (transmembrane channel-like gene family 1)","Tnf reporter robust z-score":0.43,"fewer than 50 cells in well":"enough cells in well"}
{"target gene":"Or10d1 (olfactory receptor family 10 subfamily D member 1)","Tnf reporter robust z-score":0.78,"fewer than 50 cells in well":"enough cells in well"}
{"target gene":"Ammecr1l (AMME chromosomal region gene 1-like)","Tnf reporter robust z-score":"-1.75 (active)","fewer than 50 cells in well":"enough cells in well"}
{"target gene":"Enkd1 (enkurin domain containing 1)","Tnf reporter robust z-score":"-1.4 (active)","fewer than 50 cells in well":"enough cells in well"}
{"target gene":"Or13p8 (olfactory receptor family 13 subfamily P member 8)","Tnf reporter robust z-score":-0.3,"fewer than 50 cells in well":"enough cells in well"}
{"target gene":"Fis1 (fission, mitochondrial 1)","Tnf reporter robust z-score":0.17,"fewer than 50 cells in well":"enough cells in well"}
{"target gene":"Oc90 (otoconin 90)","Tnf reporter robust z-score":-1.15,"fewer than 50 cells in well":"enough cells in well"}
{"target gene":"Mrpl20 (mitochondrial ribosomal protein L20)","Tnf reporter robust z-score":0.45,"fewer than 50 cells in well":"enough cells in well"}
{"target gene":"Fitm1 (fat storage-inducing transmembrane protein 1)","Tnf reporter robust z-score":1.03,"fewer than 50 cells in well":"enough cells in well"}
{"target gene":"Ak9 (adenylate kinase 9)","Tnf reporter robust z-score":-0.16,"fewer than 50 cells in well":"enough cells in well"}
{"target gene":"Chpf (chondroitin polymerizing factor)","Tnf reporter robust z-score":1.25,"fewer than 50 cells in well":"enough cells in well"}
{"target gene":"Capn2 (calpain 2)","Tnf reporter robust z-score":-0.92,"fewer than 50 cells in well":"enough cells in well"}
